Results are given in words; binding and its absence hold for the method and conditions named. Binding seen in cells or lysates may run through a third protein. Some binding calls cover weakened binding; strength is not graded here.

By UniProt entry, the sequences of proteins in these tests, tags left out.
UniProt O60260: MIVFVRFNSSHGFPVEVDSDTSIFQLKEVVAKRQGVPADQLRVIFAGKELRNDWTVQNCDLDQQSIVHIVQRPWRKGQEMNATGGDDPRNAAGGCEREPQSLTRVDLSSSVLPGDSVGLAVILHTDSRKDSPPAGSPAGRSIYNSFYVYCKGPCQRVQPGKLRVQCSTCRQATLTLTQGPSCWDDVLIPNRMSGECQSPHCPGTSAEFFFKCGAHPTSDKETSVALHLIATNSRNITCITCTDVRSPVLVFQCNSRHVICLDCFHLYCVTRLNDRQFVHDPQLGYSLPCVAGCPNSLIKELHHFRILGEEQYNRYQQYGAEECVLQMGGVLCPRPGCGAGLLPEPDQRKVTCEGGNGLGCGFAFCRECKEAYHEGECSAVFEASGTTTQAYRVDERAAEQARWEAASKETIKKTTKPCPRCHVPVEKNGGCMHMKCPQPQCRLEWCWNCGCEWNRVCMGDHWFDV
UniProt Q7Z434: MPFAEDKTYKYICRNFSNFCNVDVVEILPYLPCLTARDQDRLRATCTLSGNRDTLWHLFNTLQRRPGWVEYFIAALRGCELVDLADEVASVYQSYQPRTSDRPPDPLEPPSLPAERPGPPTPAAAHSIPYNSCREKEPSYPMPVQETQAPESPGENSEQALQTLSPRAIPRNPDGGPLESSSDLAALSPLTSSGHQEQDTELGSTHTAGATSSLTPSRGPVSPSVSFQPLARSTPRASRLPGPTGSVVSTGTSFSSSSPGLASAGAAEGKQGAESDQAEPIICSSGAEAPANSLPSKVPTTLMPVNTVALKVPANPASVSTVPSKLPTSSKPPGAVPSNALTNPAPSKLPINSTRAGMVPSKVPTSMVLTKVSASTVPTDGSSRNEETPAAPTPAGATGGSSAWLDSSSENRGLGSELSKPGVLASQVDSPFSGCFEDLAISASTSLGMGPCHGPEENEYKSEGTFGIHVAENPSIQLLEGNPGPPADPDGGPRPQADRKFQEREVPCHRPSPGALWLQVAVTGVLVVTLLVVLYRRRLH
UniProt Q96EP0: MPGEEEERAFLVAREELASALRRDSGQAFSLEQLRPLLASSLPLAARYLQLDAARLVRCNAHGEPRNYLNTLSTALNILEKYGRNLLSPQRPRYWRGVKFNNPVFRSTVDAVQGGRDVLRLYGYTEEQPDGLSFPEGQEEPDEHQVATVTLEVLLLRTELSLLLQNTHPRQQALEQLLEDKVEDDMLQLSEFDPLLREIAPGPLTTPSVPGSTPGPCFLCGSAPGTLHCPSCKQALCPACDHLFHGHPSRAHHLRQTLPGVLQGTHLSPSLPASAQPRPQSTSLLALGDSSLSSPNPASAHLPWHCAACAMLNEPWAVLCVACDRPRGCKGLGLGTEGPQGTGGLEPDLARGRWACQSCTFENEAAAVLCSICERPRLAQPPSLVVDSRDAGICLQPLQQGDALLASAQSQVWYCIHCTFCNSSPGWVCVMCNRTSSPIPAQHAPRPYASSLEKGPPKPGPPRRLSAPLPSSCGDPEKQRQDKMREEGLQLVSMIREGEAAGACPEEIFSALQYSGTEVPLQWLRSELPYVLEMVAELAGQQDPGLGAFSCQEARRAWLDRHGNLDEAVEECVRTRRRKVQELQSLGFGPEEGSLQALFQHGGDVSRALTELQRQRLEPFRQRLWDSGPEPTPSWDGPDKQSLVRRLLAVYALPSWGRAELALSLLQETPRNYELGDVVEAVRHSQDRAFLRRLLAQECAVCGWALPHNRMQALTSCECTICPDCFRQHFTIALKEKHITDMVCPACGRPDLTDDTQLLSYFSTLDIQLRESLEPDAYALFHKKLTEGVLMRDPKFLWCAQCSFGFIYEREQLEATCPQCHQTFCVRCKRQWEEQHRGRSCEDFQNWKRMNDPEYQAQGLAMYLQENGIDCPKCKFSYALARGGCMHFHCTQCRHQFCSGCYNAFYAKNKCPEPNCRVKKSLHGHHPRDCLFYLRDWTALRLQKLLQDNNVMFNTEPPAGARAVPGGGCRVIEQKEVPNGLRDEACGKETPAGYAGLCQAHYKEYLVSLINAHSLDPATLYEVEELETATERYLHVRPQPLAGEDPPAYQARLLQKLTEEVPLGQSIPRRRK

We go through three substances from PMC4922663.

Holding throughout (assay): co-IP
The target of assay [1] is Parkin (human (endogenous in HepAD38 and Huh7)) (UniProt O60260).
Assay [2] addresses HA-Parkin (UniProt O60260).
The target of assay [3] is mitochondrial antiviral signaling protein (MAVS) (human (endogenous in HepAD38, Huh7 and HBx expressing cells)) (UniProt Q7Z434).
In assay [4] the target is FLAG-HOIP (UniProt Q96EP0).

Turning to “mitochondrial antiviral signaling protein (MAVS) (from UniProt Q7Z434 1-540)”, the binding entry in assay [1] is reported as “binds”.
Regarding MAVS-FLAG (from UniProt Q7Z434 1-540), the binding entry in assay [2] was “binds”.
In the case of Parkin (from UniProt O60260 1-465), the binding result in assay [3] and in assay [4] was “binds” each time.
